For at least one compound, name, drawing or mass did not settle the structure.
Tests used:
récepteur mannose = experiment: Mannose receptor expression on macrophages from mice treated in vivo, flow cytometry; settings: cells from SWISS and RAG-2 mice treated in vivo; figure 8
C. albicans = experiment: Gastrointestinal candidiasis in mice: number of yeasts in organs by CFU and real-time quantitative PCR; settings: SWISS and RAG-2 mice, oesophage, estomac, caecum, vs untreated mice, figure 10

Q: For `CN(CCOc1ccc(CC2SC(=O)NC2=O)cc1)c1ccccn1` (centres unmarked) [rosiglitazone], which “quantité d'albumine bovine mannosylée marquée à la fluorescéine présente sur les macrophages” value (récepteur mannose) is on record?
A: significativement augmentée

Q: And the “colonisation des différents organes (nombre de levures)” value (C. albicans)?
A: diminution significative de la colonisation

From patent EP1628646B1, “USE OF PPAR-GAMMA AGONISTS AS ANTI-INFECTIVE AGENTS” (priority 2003, dated 2004)
